From patent US8383887B2, “Methods of using plants containing the gdhA gene” (Southern Illinois University Carbondale, priority 2009, dated 2013)

Tests used:
[1] = test system: corn kernels; assay: Levels of metabolites in gdhA+ vs gdhA− corn kernels; design: species or system Zea mays; settings: metabolite level in gdhA+ corn relative to gdhA− corn
[2] = test system: gdhA+ Nicotiana tabacum plants; assay: Metabolites with altered abundance in leaf and root extracts of gdhA+ vs gdhA− Nicotiana tabacum; settings: for Percent Change in abundance in gdhA+ plants compared to gdhA− plants: Nicotiana tabacum
[3] = root extracts, gdhA+ plants compared to gdhA− plants, % changes are ±2%
[4] = root extracts, % changes are ±2%
[5] = fatty acids (Table 6Ii), tissue not given
[6] = leaf extracts, % changes are ±2%
[7] = leaf extracts, gdhA+ plants compared to gdhA− plants, % changes are ±2%

O=C(O)CC(O)C(=O)O.O=C(O)[C@@H](O)[C@H](O)CO (racemic) [DL-malic acid; Threonate]
Factor for relative level in gdhA^+ vs. gdhA corn [1]: 2.4

4-hydroxybutyl phosphate
Factor for relative level in gdhA^+ vs. gdhA corn [1]: 0.4

O=C(/C=C/c1ccc(O)c(O)c1)O[C@@H]1C[C@](O)(C(=O)O)C[C@@H](O)[C@H]1O [Chlorogenic acid]
Factor for relative level in gdhA^+ vs. gdhA corn [1]: 2

CSc1nccc(Cl)n1 [4-Chloro-2-methylthiopyrimidine]
Factor for relative level in gdhA^+ vs. gdhA corn [1]: 0.4

O=C[C@H](O)[C@@H](O)[C@H](O)[C@H](O)CO [D-glucose]
Factor for relative level in gdhA^+ vs. gdhA corn [1]: 1.9

O=C1C(=O)C2C=CC1O2 [7-Oxabicyclo[2.2.1]-hept-5-ene-2,3-dione]
Percent Change [2, 3]: 41%

4,4′-Dimethylcholestatrienol
Percent Change in abundance in gdhA+ plants compared to gdhA− plants [2, 4]: 16%

C=C(CC(=O)OCC(CC)CCCC)C(=O)OCC(CC)CCCC (stereo not shown) [Di(2-ethylhexyl) itaconate]
Percent Change in abundance in gdhA+ plants compared to gdhA− plants [2, 4]: 40% | Percent Change [2, 3]: 40%

CCCCCCCCCCCCOS(=O)(=O)c1ccccc1 [Benzenesulfonic acid dodecylester]
Percent Change in abundance in gdhA+ plants compared to gdhA− plants [2, 4]: 63% | Percent Change [2, 3]: 63%

CN1CCCC1c1cccnc1 (stereo not shown) [Nicotine]
Percent Change in abundance in gdhA+ plants compared to gdhA− plants [2, 4]: 270%

CCCCCCCCCC/C=C/C(=O)O [trans-2-Tridecenoic acid]
Percent Change [2, 5]: 50%

CCCCCCC(O)CCCCCCCCCCC(=O)O (racemic) [DL-12-Hydroxystearic acid]
Percent Change [2, 5]: 196%

O=c1cc(O)c2ccccc2o1 [4-hydroxycoumarin]
Percent Change in abundance in gdhA+ plants compared to gdhA− plants [2, 6]: 270%

C=COC(=O)CCCCCCCCCCCCCCCCC [Octadecanoic acid, ethenyl ester]
Percent Change in abundance in gdhA+ plants compared to gdhA− plants [2, 4]: 17%

CCOC(=O)N1CCN(C(=O)OCC)CC1 [Diethyl 1,4 piperazine dicarboxylate]
Percent Change in abundance in gdhA+ plants compared to gdhA− plants [2, 6]: 54% | Percent Change [2, 7]: 54%

O=C1C[C@@H](O)CN1 [R-4-hydroxy-2-pyrrolidone]
Percent Change in abundance in gdhA+ plants compared to gdhA− plants [2, 4]: 435% | Percent Change [2, 3]: 435%

CCCCC/C=C\C/C=C\CCCCCCCC(=O)O [Linoleic acid]
Factor for relative level in gdhA^+ vs. gdhA corn [1]: 0.8 | Percent Change in abundance in gdhA+ plants compared to gdhA− plants [2, 6]: 36%

NC(=O)CC[C@H](NC(=O)CC[C@H](N)C(=O)O)C(=O)O [(gamma-L-glutamyl)-L-glutamine]
Percent Change in abundance in gdhA+ plants compared to gdhA− plants [2, 4]: 263% | Percent Change ([2]; root extracts, metabolite abundance, gdhA+ vs gdhA− Nicotiana tabacum): 263%

CC(=O)O[C@@H]1[C@@H](OC(C)=O)[C@@H]2OC[C@@H](O2)[C@H]1OC(C)=O [1,6-Anhydro-beta-D-glucopyranose 2,3,4-Triacetate]
Percent Change in abundance in gdhA+ plants compared to gdhA− plants [2, 4]: 588%

CCCCCCCCCCCCCCCCCCCCCCCC(=O)OCC [Ethyl tetracosanoate]
Percent Change in abundance in gdhA+ plants compared to gdhA− plants [2, 6]: 30% | Percent Change in abundance in gdhA+ plants compared to gdhA− plants [2, 4]: 8%

CO[C@]1(C)CC[C@@]23C[C@@H]1C(C)(C)[C@@H]2CC[C@H]3C [Cedrol methyl ether]
Percent Change in abundance in gdhA+ plants compared to gdhA− plants [2, 4]: 21% | Percent Change [2, 3]: 21%

CC(=O)O.CC(=O)O.O=C1c2ccccc2C(=O)c2c(NCCNCCO)ccc(NCCNCCO)c21 [1,4-bis(2-(2-hydroxyethyl)amino) ethyl) amino)-9,10-anthrancenedione diacetate]
Percent Change in abundance in gdhA+ plants compared to gdhA− plants [2, 6]: 345% | Percent Change [2, 7]: 345%

CCCCCCCCCCC(=O)O [Undecanoic acid]
Percent Change [2, 5]: 21% | Percent Change in abundance in gdhA+ plants compared to gdhA− plants [2, 4]: 13% and 21%

CC(=O)CC(=O)OC1CC(C)CCC1C(C)C (stereo not shown) [Menthyl acetoacetate]
Percent Change in abundance in gdhA+ plants compared to gdhA− plants [2, 6]: 23% | Percent Change [2, 7]: 23% | Percent Change in abundance in gdhA+ plants compared to gdhA− plants [2, 4]: 13% | Percent Change [2, 3]: 13%

Values joined by “and” are separate entries in the source; they are usually repeats but may differ in a detail not shown here. Equal values may be shown once.
